Experimental data published in PMC9319256, “Human Enzyme PADI4 Binds to the Nuclear Carrier Importin α3” (Cells, 2022).
Results are given in words; binding and its absence hold for the method and conditions named.

What was measured:
[1] = molecular target: NLS2-PADI4 peptide (human); assay: SEC; Superdex 75 10/30 HR; 20 mM Tris pH 7.6, 250 mM NaCl; 50-400 µM NLS1-PADI4, 200-400 µM NLS2-PADI4; both purified
[2] = molecular target: NLS2-PADI4 peptide (human); assay: translational diffusion NMR (DOSY); 100 µM peptide; 100 mM sodium phosphate, pH 7.0; 10 °C; dioxane as reference; both purified

binding [1]: no binding (tested: 200–400 µM) | binding [2]: no binding (tested: 100 µM)
Binder: YKLFQEQQNEGHGEALLFEGIKKKKQQKI (acetylated N-terminus; amidated C-terminus) [NLS2-PADI4 peptide]
